Results are given in words; binding and its absence hold for the method and conditions named. In cells and extracts the contact can be indirect. Here binding means that the protein was enriched with, or labelled near, the bait; the list need not be complete. For part of these data: A no says only that the protein was not detected with the bait.
Assays:
[1] = target: GST-tagged E6 protein from α-HPV type 16 (human papillomavirus type 16) (UniProt P03126); assay: affinity purification with mass spectrometry; only the target purified
[2] = target: GST-tagged E6 protein from β-HPV type 8 (human papillomavirus type 8) (UniProt P06428); assay: as above

Chains of the proteins cited; added tags and fusions are not shown.
UniProt P03126: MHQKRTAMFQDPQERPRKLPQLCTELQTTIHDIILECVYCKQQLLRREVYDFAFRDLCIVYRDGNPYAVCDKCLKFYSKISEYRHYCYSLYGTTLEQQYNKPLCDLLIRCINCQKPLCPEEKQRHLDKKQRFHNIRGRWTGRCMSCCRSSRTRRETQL
UniProt P06428: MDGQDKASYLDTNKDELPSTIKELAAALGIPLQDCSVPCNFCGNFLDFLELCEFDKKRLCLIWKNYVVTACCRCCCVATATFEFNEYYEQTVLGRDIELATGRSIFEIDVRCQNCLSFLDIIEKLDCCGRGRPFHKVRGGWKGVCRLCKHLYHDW
UniProt Q92793: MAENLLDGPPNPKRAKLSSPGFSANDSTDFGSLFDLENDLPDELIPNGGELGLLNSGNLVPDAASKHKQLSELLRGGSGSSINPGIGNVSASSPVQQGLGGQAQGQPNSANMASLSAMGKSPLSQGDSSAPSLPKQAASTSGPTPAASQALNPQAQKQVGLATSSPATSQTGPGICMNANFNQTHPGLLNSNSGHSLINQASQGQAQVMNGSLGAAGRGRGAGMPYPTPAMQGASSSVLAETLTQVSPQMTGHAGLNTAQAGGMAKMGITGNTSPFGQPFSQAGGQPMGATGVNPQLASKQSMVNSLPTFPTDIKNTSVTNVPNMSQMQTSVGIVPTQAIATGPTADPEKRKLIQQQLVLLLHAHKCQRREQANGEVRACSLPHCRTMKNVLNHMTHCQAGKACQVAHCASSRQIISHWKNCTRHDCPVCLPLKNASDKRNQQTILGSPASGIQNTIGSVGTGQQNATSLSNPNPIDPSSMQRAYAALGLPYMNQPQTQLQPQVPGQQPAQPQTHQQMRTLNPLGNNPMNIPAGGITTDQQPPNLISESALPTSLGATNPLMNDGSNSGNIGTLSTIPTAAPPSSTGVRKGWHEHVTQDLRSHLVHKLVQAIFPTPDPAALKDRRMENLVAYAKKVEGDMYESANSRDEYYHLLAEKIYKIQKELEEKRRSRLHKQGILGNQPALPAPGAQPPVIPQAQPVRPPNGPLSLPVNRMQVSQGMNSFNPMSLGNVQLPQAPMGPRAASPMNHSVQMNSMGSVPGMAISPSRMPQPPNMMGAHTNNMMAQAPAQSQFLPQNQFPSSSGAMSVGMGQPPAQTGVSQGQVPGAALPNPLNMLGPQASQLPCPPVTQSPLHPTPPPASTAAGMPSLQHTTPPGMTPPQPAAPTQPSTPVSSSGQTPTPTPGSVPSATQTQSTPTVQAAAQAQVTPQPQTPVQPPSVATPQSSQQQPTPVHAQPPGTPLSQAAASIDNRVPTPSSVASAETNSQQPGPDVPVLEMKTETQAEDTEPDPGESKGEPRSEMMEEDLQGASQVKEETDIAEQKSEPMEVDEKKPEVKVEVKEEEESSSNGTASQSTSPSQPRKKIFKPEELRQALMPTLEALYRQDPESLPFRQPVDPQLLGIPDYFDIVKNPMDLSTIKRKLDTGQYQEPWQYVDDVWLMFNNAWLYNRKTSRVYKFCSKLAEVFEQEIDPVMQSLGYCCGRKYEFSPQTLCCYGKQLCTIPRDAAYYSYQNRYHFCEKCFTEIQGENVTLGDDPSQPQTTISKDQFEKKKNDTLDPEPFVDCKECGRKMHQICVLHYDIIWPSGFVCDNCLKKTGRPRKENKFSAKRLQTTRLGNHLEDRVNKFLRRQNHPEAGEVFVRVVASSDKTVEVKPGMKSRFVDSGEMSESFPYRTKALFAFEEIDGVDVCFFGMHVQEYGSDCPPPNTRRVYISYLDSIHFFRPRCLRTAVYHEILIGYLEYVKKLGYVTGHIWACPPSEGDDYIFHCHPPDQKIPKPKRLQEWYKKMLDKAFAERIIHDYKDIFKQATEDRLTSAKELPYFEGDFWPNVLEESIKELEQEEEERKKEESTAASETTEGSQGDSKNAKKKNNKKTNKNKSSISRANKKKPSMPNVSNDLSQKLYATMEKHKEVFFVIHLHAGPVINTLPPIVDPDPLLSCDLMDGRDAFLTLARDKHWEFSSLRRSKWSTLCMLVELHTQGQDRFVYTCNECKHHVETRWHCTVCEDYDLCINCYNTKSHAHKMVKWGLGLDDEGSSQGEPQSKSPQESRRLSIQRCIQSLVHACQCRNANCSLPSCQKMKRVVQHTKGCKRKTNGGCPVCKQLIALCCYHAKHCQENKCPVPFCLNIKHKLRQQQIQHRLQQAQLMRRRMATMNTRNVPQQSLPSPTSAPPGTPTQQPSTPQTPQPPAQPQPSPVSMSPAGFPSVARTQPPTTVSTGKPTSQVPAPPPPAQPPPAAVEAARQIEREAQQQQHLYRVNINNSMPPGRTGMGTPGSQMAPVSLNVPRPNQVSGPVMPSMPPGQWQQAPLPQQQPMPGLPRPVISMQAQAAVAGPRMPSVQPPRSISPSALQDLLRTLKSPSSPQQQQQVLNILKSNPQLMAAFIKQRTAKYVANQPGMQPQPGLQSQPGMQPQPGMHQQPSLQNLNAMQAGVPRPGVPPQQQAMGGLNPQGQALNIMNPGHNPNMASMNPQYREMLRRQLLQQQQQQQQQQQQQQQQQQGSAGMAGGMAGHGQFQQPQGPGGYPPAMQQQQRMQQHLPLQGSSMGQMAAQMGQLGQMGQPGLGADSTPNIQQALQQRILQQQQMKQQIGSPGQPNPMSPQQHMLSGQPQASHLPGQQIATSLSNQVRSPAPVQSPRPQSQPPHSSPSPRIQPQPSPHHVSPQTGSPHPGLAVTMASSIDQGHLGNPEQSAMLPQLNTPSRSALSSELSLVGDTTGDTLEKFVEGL
UniProt Q09472: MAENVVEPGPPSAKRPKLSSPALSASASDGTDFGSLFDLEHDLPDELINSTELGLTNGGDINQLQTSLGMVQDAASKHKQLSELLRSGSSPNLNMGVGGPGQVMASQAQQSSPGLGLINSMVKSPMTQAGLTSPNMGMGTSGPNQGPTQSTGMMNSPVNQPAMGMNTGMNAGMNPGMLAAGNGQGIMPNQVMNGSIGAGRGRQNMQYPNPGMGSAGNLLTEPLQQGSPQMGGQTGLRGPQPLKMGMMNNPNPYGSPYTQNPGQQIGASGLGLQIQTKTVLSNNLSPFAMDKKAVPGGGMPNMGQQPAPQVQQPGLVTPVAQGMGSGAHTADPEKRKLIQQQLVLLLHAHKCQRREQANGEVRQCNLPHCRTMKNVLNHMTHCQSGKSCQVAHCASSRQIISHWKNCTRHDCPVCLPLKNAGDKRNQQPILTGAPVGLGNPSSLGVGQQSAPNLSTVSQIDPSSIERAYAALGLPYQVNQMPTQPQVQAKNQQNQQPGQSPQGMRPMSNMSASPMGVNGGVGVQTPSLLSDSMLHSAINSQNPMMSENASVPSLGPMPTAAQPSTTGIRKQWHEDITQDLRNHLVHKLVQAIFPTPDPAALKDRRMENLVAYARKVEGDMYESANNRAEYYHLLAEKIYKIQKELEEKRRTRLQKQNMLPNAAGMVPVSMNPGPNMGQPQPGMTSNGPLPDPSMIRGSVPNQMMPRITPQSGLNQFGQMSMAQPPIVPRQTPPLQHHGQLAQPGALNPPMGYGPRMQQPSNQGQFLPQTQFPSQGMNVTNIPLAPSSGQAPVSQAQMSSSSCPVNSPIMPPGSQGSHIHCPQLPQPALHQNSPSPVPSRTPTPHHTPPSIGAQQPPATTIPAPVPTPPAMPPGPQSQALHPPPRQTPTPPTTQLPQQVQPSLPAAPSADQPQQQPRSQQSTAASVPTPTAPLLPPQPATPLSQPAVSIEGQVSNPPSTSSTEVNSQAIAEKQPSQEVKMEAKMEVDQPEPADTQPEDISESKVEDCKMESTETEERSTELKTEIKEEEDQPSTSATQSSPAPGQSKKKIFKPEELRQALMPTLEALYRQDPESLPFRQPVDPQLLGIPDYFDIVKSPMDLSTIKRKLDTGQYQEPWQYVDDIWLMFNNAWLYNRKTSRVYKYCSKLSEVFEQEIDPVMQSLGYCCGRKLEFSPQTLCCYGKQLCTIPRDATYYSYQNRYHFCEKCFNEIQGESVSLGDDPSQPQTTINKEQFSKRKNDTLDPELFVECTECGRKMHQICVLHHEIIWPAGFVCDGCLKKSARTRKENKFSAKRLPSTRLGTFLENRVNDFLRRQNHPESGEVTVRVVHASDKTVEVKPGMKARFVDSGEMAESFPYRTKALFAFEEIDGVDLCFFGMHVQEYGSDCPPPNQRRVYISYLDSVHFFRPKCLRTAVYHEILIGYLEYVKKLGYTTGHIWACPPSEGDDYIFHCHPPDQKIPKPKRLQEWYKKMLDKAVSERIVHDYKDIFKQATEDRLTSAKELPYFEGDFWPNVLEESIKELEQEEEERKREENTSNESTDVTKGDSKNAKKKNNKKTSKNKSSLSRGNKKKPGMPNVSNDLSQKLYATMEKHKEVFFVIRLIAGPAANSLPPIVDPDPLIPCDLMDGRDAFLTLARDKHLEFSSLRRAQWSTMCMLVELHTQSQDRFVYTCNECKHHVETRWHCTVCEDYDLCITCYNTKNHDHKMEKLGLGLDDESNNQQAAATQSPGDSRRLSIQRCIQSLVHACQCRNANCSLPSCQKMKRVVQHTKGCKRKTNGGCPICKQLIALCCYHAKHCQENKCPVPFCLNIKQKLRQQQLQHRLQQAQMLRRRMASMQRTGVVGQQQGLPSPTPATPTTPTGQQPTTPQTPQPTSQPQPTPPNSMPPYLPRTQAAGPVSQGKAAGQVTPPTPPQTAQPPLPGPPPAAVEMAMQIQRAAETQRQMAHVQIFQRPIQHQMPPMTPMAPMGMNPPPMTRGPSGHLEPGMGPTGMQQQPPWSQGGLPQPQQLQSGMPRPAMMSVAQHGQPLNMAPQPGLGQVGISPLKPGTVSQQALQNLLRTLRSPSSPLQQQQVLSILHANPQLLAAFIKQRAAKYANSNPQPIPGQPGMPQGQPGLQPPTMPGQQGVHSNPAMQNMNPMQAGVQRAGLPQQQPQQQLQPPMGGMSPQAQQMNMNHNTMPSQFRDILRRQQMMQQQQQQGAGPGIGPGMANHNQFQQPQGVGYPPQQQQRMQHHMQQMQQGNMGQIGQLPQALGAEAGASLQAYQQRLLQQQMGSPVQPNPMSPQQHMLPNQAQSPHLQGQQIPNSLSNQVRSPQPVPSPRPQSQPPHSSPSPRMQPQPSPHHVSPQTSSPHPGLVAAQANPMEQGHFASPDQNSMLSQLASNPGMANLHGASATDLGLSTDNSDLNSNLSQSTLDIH

Substance | binding [1] | binding [2]
CBP (endogenous) (from UniProt Q92793 1-2442) | no binding | binds
histone acetyltransferase p300 (endogenous) (from UniProt Q09472 1-2414) |  | binds

From article PMC3161984
